Assay results taken from patent US20120034162A1 (William March Rice University, priority 2006, published 2012).

Assay: general procedure: Fmoc solid-phase peptide synthesis; Rink amide resin; preloaded Wang resin (Novabiochem); HBTU/HOBt/DIEA; PyBOP/HOBt/DIEA for Baa
Conditions: whole synthesis

Substance	isolated mass [mg]	isolated yield [%]
Glu-Ile-Ala-Gln-Leu-Glu-Baa-Glu-Ile-Ser-Gln-Leu-Glu-Gln-NH2	8.5	6.8
Baa-Arg-Gln-Ile-Lys-Ile-Trp-Phe-Gln-Asn-Arg-Arg-Met-Lys-Trp-Lys-Lys-OH	58.7	36.9
Baa-Glu-Glu-Glu-Glu-Gly-Gly-Gly-Ser-CO2H (EEEEGGGS; N-terminal Baa fullerene amino acid; printed: Glu-Glu-Glu-Glu-Gly-Gly-Gly-Ser-)	21.8	24.9
Baa-Lys(FITC)-Glu-Glu-Glu-Glu-Gly-Gly-Gly-Ser-CO2H (EEEEGGGS; N-terminal Baa-Lys(FITC); printed: Glu-Glu-Glu-Glu-Gly-Gly-Gly-Ser-)	8.4	7.4
Baa-Lys(FITC)-Pro-Lys-Lys-Lys-Arg-Lys-Val-Ser-Cys-OH	34.5	27.3
Baa-Glu-Ile-Ala-Gln-Leu-Glu-Tyr-Glu-Ile-Ser-Gln-Leu-Glu-Gln-NH2 (EIAQLEYEISQLEQ; N-terminal Baa fullerene amino acid; C-amide; printed: Glu-Ile-Ala-Gln-Leu-Glu-Tyr-Glu-Ile-Ser-Gln-Leu-Glu-Gln-)	20.6	15.4
Baa-Glu-Ile-Ala-Gln-Leu-Glu-Tyr-Glu-Ile-Ser-Gln-Leu-Glu-Gln-Glu-Ile-Gln-Ala-Leu-Glu-Ser-NH2 (EIAQLEYEISQLEQEIQALES; N-terminal Baa fullerene amino acid; C-amide; printed: Glu-Ile-Ala-Gln-Leu-Glu-Tyr-Glu-Ile-Ser-Gln-Leu-Glu-Gln-Glu-Ile-Gln-Ala-Leu-Glu-Ser-)	8.8	8.7
Baa-(Lys)10Lys(FITC)-Pro-Lys-Lys-Lys-Arg-Lys-Val-Ser-Cys-OH	98.3	51.6
Baa-Glu-Glu-Glu-Glu-Gly-Gly-Gly-Gly-Ser-Cys-OH	8.0	8.5
Baa-Lys(FITC)-Lys-Lys-Lys-Lys-Lys-Lys-Lys-Lys-CO2H	54.2	43.4
